Test results as given in US7612045B2, “Compounds, compositions and methods for controlling biofilms and bacterial infections” (Sequoia Sciences, Inc., priority 2005, dated 2009).
Some of these results come from one statement about several compounds together.

Assay: Bladder concentrations in rats after oral dosing
Format: in vivo
Conditions: 50 mg/kg (oral), single bolus in 50% Labrasol, 24 hours, expected

Structure (SMILES): C[C@H]1[C@H](C)CC[C@]2(C(=O)O)CC[C@]3(C)C(=CC[C@@H]4[C@@]5(C)C[C@@H](O)[C@H](O)[C@@](C)(CO)[C@@H]5[C@H](O)C[C@]43C)[C@H]12 [Compound 314, Madecassic Acid]
- Concentration in the bladder: > 10 µg/g
